# Values quoted from earlier work, collected in patent US11752165B2, “Basic chemotherapeutic intratumour injection formulation” (US NANO FOOD & DRUG, INC., priority 2020, dated 2023).
# Structures can show the parent of a compound that is named as a salt. At least one compound was matched to its structure with a doubt left.
# Settings: 5 mg/mL aqueous solution; cited from earlier work
smiles,measurement,value
COc1cccc2c1C(=O)c1c(O)c3c(c(O)c1C2=O)C[C@@](O)(C(=O)CO)C[C@@H]3O[C@H]1C[C@H](N)[C@@H](O)[C@H](C)O1 [Epirubicin hydrochloride],pH of aqueous solution,4.0-5.5
